Test results from the supplement of paper PMC7666118.
The list shows a part of the results.

By UniProt entry, the sequences of proteins in these tests, tags left out. Where a name states a change or a piece, a line headed by the entry shows the natural chain unless it says otherwise.
UniProt P60520, whole entry: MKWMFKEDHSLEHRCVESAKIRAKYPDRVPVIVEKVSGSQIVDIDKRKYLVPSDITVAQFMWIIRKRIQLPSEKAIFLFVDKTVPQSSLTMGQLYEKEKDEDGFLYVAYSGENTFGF
UniProt Q4G148: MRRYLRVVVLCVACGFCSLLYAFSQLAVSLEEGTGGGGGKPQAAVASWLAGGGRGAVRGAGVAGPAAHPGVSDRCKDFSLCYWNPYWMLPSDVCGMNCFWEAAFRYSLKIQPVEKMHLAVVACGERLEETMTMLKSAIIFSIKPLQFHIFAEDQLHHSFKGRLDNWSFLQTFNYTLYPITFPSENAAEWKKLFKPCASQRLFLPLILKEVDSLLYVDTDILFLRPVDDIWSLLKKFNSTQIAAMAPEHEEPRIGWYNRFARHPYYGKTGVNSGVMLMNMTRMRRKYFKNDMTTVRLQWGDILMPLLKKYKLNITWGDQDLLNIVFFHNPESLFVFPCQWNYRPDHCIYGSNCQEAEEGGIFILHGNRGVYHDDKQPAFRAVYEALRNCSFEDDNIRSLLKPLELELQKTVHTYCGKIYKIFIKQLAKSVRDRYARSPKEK
UniProt Q9HA64: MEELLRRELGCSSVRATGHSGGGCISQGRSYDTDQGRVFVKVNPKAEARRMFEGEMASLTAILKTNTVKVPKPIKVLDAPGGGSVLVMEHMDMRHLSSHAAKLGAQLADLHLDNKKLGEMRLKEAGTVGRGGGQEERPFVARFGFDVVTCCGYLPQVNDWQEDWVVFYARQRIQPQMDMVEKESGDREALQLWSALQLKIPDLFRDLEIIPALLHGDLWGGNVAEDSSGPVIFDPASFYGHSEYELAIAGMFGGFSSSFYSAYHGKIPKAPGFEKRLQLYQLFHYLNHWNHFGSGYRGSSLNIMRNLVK
UniProt P37268: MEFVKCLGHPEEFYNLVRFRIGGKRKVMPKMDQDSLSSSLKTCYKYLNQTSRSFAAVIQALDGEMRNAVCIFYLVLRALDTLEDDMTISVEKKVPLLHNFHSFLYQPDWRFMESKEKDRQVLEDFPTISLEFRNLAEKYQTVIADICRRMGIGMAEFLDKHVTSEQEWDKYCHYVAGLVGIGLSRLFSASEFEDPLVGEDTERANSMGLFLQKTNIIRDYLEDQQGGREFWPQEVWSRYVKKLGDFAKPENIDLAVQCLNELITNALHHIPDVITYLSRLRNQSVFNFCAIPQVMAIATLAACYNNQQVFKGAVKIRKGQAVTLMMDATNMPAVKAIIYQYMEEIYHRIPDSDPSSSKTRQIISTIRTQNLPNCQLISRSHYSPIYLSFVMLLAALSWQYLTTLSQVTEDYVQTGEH
UniProt P60983, whole entry: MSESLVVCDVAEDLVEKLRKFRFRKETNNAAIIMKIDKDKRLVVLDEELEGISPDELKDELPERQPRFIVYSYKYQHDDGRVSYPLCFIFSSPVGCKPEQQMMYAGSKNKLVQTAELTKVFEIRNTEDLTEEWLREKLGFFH
UniProt P29992, whole entry: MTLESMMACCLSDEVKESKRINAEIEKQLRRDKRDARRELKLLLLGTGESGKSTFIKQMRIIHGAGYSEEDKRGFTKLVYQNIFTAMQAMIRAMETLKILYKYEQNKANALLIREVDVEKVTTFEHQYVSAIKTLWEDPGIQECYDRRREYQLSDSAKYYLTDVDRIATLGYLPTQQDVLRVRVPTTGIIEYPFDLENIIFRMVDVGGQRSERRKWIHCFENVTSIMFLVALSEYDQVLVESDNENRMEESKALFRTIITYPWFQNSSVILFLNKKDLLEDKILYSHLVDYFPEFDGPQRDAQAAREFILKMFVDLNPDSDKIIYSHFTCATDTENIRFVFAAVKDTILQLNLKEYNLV
UniProt P28676: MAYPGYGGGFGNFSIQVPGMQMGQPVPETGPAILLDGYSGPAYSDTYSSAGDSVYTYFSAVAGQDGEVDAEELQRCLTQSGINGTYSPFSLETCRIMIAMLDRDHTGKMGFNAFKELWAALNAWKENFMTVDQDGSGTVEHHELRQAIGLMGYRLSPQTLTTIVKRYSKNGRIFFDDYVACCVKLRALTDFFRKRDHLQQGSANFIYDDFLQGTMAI
UniProt Q04446: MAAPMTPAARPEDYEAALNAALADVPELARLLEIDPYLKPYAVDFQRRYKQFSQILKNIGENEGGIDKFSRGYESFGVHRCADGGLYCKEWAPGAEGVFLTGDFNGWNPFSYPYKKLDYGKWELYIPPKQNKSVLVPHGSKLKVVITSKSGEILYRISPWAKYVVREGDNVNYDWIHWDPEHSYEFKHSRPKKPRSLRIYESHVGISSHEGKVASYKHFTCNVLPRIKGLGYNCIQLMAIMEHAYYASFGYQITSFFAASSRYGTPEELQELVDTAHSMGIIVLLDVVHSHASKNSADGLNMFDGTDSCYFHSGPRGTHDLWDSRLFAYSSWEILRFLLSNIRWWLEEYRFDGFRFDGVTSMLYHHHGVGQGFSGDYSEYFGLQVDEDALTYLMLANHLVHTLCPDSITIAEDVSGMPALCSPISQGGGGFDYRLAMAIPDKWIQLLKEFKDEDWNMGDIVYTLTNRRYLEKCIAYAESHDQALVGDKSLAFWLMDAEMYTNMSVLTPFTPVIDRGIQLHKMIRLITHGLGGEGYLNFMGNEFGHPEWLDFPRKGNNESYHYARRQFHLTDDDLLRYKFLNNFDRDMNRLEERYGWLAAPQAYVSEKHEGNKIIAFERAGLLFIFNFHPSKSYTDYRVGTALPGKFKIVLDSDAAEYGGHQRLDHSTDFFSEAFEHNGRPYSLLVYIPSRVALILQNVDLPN
UniProt Q8WZA9: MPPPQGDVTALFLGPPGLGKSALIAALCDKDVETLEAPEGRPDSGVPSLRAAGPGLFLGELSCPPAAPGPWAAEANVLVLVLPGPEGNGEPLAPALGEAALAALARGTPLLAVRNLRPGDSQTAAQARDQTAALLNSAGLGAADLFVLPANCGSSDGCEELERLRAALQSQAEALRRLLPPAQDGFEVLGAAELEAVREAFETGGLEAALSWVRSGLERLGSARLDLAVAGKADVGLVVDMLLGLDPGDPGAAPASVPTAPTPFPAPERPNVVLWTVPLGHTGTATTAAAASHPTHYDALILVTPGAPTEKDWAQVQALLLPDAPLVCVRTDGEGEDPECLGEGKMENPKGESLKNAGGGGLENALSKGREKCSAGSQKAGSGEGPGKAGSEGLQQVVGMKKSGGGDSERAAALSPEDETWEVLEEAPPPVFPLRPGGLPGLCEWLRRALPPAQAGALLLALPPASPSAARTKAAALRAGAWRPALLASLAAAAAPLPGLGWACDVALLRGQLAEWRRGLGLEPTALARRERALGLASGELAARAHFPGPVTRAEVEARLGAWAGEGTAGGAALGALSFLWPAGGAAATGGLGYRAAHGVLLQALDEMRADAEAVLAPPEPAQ
UniProt Q5D862: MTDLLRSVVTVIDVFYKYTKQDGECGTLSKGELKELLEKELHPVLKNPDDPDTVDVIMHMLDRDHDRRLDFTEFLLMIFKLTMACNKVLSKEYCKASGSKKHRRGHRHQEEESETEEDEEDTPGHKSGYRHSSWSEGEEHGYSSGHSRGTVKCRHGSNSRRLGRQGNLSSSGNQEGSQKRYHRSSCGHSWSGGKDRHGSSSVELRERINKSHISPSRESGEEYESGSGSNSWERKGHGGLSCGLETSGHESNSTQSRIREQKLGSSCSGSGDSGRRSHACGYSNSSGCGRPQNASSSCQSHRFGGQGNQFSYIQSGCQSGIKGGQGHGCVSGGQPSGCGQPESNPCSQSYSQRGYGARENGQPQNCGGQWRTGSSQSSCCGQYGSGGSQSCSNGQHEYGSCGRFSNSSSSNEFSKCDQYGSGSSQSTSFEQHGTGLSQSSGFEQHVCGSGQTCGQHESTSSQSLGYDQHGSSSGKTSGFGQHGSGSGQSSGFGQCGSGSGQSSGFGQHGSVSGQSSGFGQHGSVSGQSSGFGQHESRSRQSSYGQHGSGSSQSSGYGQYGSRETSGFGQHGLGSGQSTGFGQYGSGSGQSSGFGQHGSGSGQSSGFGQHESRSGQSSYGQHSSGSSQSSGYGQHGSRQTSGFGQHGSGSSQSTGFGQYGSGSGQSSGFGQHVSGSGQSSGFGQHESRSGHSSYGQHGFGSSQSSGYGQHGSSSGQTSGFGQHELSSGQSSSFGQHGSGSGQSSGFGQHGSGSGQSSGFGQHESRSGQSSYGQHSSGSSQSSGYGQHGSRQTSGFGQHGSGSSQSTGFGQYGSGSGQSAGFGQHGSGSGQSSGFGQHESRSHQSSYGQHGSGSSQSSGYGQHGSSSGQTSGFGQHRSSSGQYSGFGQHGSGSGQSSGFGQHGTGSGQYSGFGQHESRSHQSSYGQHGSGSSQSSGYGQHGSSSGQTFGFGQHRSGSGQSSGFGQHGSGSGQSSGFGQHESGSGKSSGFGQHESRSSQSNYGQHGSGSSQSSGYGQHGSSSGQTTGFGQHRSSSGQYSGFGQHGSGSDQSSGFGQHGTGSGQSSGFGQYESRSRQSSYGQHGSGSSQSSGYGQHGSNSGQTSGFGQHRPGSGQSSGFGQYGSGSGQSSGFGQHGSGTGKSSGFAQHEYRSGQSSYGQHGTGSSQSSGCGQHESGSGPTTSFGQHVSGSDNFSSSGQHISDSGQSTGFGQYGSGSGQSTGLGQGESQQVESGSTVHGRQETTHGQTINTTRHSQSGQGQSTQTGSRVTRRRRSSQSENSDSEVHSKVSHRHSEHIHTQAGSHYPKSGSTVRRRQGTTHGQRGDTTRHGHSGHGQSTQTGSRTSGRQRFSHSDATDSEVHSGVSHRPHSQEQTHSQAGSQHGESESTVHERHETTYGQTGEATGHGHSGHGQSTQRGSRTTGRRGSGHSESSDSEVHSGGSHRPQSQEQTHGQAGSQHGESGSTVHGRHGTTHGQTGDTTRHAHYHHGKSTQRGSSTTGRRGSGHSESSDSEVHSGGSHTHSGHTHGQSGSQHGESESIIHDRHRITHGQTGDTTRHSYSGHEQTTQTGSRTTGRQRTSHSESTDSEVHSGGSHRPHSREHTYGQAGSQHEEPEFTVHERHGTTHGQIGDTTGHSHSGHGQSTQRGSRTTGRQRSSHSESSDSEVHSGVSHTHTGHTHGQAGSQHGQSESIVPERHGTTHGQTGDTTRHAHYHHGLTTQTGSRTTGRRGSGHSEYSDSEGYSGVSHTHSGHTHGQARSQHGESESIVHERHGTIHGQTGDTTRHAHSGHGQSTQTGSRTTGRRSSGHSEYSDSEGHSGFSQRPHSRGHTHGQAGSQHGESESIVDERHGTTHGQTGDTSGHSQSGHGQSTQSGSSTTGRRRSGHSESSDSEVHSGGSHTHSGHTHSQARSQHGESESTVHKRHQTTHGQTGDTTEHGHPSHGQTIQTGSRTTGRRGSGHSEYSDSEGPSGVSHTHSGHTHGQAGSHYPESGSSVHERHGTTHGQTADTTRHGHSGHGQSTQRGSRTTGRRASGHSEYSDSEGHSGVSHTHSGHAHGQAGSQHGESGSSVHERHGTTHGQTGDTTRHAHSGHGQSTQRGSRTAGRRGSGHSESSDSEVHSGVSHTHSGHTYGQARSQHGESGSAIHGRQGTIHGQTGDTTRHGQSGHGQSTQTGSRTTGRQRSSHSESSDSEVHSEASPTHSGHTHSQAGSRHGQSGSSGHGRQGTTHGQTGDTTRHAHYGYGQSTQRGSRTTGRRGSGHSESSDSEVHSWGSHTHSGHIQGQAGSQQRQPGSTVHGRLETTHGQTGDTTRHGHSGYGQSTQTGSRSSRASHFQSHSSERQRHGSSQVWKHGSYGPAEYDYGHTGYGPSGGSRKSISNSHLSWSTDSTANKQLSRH
UniProt P15407: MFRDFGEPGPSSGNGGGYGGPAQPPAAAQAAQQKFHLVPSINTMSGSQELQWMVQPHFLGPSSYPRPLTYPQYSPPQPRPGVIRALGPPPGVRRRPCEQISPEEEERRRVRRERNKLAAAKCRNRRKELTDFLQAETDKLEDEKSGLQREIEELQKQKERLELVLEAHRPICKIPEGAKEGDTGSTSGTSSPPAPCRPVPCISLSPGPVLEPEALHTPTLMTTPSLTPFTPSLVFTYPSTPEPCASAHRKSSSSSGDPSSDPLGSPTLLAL
UniProt P22570: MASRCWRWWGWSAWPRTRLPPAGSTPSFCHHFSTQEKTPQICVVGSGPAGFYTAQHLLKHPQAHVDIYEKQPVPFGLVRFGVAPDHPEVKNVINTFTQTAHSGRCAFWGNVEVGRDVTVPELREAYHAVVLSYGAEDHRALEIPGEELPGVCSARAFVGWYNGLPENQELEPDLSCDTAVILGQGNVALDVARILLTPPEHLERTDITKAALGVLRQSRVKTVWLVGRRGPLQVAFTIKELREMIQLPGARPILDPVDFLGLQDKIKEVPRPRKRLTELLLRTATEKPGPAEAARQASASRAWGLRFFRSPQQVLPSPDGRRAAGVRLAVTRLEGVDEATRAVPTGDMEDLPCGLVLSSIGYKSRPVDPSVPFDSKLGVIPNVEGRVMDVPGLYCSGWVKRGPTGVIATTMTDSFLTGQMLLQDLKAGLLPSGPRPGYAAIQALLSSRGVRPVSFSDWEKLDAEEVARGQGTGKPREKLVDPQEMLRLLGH

Each target was assayed with COc1ccc(Cn2ccc3cc(C)c(C(=O)NO)cc32)cc1 (assay: dose-dependent thermal stabilisation call (2D-TPP, DLPTP, 10% FDR) (binary (1 = stabilised)); higher = stabilised by the compound). Details: system: HL-60 intact cells; concentration range 0.04-10 µM.
Description: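 2D thermal proteome profiling in intact HL-60 cells treated with BRD-3811 (0, 0.04, 0.29, 2, 10 uM) for 90 min at 37 C, then heated 3 min at one of 12 temperatures (42-63.9 C). Soluble protein was quantified by TMT10 MS. The value is the DLPTP call of the paper: dose-dependent thermal stabilisation over all temperatures at 10% FDR (F-test of a dose-response against a flat model); one experiment, one call per tested protein.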
GLUD1 (UniProt P00367) was tested, and the “dose-dependent thermal stabilisation call” value was active: 1.
GABARAPL2 (UniProt P60520) was tested, and the “dose-dependent thermal stabilisation call” value was inactive: 0.
In the case of GMPS (UniProt P49915), the “dose-dependent thermal stabilisation call” value is reported as inactive: 0.
For FIBP (UniProt O43427), the “dose-dependent thermal stabilisation call” value was inactive: 0.
With GLS (UniProt O94925) the “dose-dependent thermal stabilisation call” value was inactive: 0.
GLT8D3 (UniProt Q4G148) was tested, and the “dose-dependent thermal stabilisation call” value was inactive: 0.
In the case of FN3KRP (UniProt Q9HA64), the “dose-dependent thermal stabilisation call” value is reported as inactive: 0.
With FMR1 (UniProt Q06787) the “dose-dependent thermal stabilisation call” value was inactive: 0.
For FBXL11 (UniProt Q9Y2K7), the “dose-dependent thermal stabilisation call” value was inactive: 0.
For GMPPA (UniProt Q96IJ6), the “dose-dependent thermal stabilisation call” value was inactive: 0.
For FDFT1 (UniProt P37268), the “dose-dependent thermal stabilisation call” value was inactive: 0.
In the case of FLOT2 (UniProt Q14254), the “dose-dependent thermal stabilisation call” value is reported as inactive: 0.
GALNT14 (UniProt Q96FL9) was tested, and the “dose-dependent thermal stabilisation call” value was inactive: 0.
For FUK (UniProt Q8N0W3), the “dose-dependent thermal stabilisation call” value was inactive: 0.
In the case of FBXL8 (UniProt Q96CD0), the “dose-dependent thermal stabilisation call” value is reported as inactive: 0.
FECH (UniProt P22830) was tested, and the “dose-dependent thermal stabilisation call” value was inactive: 0.
GLB1 (UniProt P16278) was tested, and the “dose-dependent thermal stabilisation call” value was inactive: 0.
For FLJ43093, the “dose-dependent thermal stabilisation call” value was inactive: 0.
FAM54A (UniProt Q6P444) was tested, and the “dose-dependent thermal stabilisation call” value was inactive: 0.
For GALE (UniProt Q14376), the “dose-dependent thermal stabilisation call” value was inactive: 0.
FRYL (UniProt O94915) was tested, and the “dose-dependent thermal stabilisation call” value was inactive: 0.
For GMPR2 (UniProt Q9P2T1), the “dose-dependent thermal stabilisation call” value was inactive: 0.
GMFB (UniProt P60983) was tested, and the “dose-dependent thermal stabilisation call” value was inactive: 0.
In the case of GNA11 (UniProt P29992), the “dose-dependent thermal stabilisation call” value is reported as inactive: 0.
GCA (UniProt P28676) was tested, and the “dose-dependent thermal stabilisation call” value was inactive: 0.
In the case of G3P1_HUMAN, the “dose-dependent thermal stabilisation call” value is reported as inactive: 0.
In the case of FTO (UniProt Q9C0B1), the “dose-dependent thermal stabilisation call” value is reported as inactive: 0.
GBE1 (UniProt Q04446) was tested, and the “dose-dependent thermal stabilisation call” value was inactive: 0.
FKBP8 (UniProt Q14318) was tested, and the “dose-dependent thermal stabilisation call” value was inactive: 0.
In the case of FKSG27 (UniProt Q8WZA9), the “dose-dependent thermal stabilisation call” value is reported as inactive: 0.
For GFER (UniProt P55789), the “dose-dependent thermal stabilisation call” value was inactive: 0.
In the case of FLG2 (UniProt Q5D862), the “dose-dependent thermal stabilisation call” value is reported as inactive: 0.
In the case of FOSL1 (UniProt P15407), the “dose-dependent thermal stabilisation call” value is reported as inactive: 0.
In the case of GNAQ (UniProt P50148), the “dose-dependent thermal stabilisation call” value is reported as inactive: 0.
For FDXR (UniProt P22570), the “dose-dependent thermal stabilisation call” value was inactive: 0.
FUBP1 (UniProt Q96AE4) was tested, and the “dose-dependent thermal stabilisation call” value was inactive: 0.
FAM82A2 (UniProt Q96TC7) was tested, and the “dose-dependent thermal stabilisation call” value was inactive: 0.
For GFM2 (UniProt Q969S9), the “dose-dependent thermal stabilisation call” value was inactive: 0.
For FAU (UniProt P62861), the “dose-dependent thermal stabilisation call” value was inactive: 0.
In the case of FKBP2 (UniProt P26885), the “dose-dependent thermal stabilisation call” value is reported as inactive: 0.
